Here are results for one molecule from article PMC6972931, “YqfB protein from Escherichia coli: an atypical amidohydrolase active towards N^4-acylcytosine derivatives” (Scientific Reports, 2020).

The assay addresses YqfB protein from Escherichia coli (Escherichia coli) (UniProt P67603). The assay can be described thus: SEC; Superdex 200 10/300; 0.5 mL sample at 1 mg ml^-1; 50 mM Tris-HCl pH 8.0, 100 mM NaCl; 0.3 ml min^-1; standards apoferritin, albumin, carbonic anhydrase; both purified. (In general: SEC sorts molecules by how far they enter the pores of the column.)

No constants are given. Whether binding was seen depends on the method and setting.

B1: YqfB protein from Escherichia coli (enzyme, UniProt P67603 1-103)
chain: MQPNDITFFQRFQDDILAGRKTITIRDESESHFKTGDVLRVGRFEDDGYFCTIEVTATSTVTLDTLTEKHAEQENMTLTELKKVIADIYPGQTQFYVIEFKCL
Regarding B1, the binding result is “no binding (tested: 1 mg ml^-1)”.
